# Values of other authors, collected in patent publication US11597933B2, “Combination therapy of lymphoma” (The Trustees of Columbia University in the City of New York, priority 2017, dated 2023).
# Where two headings read alike, the source gives them in different places. At least one structure is not confirmed: it was looked up by name or label, or the drawing left a doubt.
# Tests used:
# [1] = test system: R/R DLBCL or follicular lymphoma (FL); details: cited from earlier work
# [2] = test system: B-cell lymphomas; details: phase I clinical trial; cited from earlier work
structure (smiles),measurement,setting,value
CCN(c1cc(-c2ccc(CN3CCOCC3)cc2)cc(C(=O)NCc2c(C)cc(C)[nH]c2=O)c1C)C1CCOCC1 [tazemetostat],partial response,[1]; 17 evaluable patients with EZH2 mutated DLBCL,29%
same,median time to first response,[1]; EZH2 MT DLBCL group,8.3 weeks
same,overall response rate (ORR),[1]; cohort EZH2 MT DLBCL,29%
same,overall response rate (ORR),[1]; cohort EZH2 MT FL,92%
same,complete responses,[1]; cohort EZH2 WT DLBCL,8%
same,overall response rate (ORR),[1]; cohort EZH2 WT DLBCL,15%
same,overall response rate (ORR),[1]; cohort EZH2 WT FL,26%
same,overall response rate,[2],38%
